From article PMC4916389
These are yes or no findings as the source states them, for the method shown. In cells and extracts the contact can be indirect. A yes stands for co-enrichment or nearness to the bait. Other partners may have been found.

By UniProt entry, the sequences of proteins in these tests, tags left out. Where a name states a change or a piece, a line headed by the entry shows the natural chain unless it says otherwise.
UniProt F7W245: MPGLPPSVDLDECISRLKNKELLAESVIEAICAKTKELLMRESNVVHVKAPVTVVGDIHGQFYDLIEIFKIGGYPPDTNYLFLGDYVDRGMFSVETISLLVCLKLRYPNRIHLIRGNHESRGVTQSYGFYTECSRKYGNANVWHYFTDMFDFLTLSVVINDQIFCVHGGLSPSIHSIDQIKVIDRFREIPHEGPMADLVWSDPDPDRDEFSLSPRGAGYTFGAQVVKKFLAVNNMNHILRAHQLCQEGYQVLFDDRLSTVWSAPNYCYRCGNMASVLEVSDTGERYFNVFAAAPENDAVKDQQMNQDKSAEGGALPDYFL

Biological target: NTAP-PP2Ac1 (catalytic subunit 1 of protein phosphatase 2A with an N-terminal TAP tag) (Sordaria macrospora) (UniProt F7W245)
Assay: affinity purification with mass spectrometry; tandem affinity purification (TAP) with NTAP-PP2Ac1 as bait from protein extract of the S. macrospora Δpp2Ac1::ntap-pp2Ac1 strain; TEV cleavage with AcTEV; tryptic digestion and MudPIT MS; four replicates; unspecific background and ribosomal proteins subtracted

Binder | binding
SMAC_00681, hypothetical protein of unknown function (protein, UniProt F7VMS7 1-695) MASQPRNTYNAPGFLPNGAAPHQGPVPGATPLLPNQGRVLQTGPIRVLCIADVRGNLRSLNDLAKSARADYIIHTGDFGFYDETSLERIAEKTLKHVAQYSPLISESTKKAIAQAAAGPVKSRFPASELPLSELPLLISGELKLDVPVYTVWGACEDVRVLEKFRSGEYKVPNLFVIDESRSKLLEIGGVKLRLLGLGGAVVMHKLFDNGEGRTTIAGGQGTMWTTLLQMGELVDTANRVYDPTETRIFITHASPAREGILNQLSVTLKADFSISAGLHFRYGSSYNEFSVNPTLDHYRGKLAASKASFNDVWETVRSEVEPAIQQNDVQQTLLKNALSVVEKMPTTAAGGNPFGGAAAGQSVAALGQVDESAFKNMWNFNLADAAFGWLVLEIHDGRIGTEMRAQGFNFSHRGAKQPVNAAQGAVPASAGGANPVPTGPAASTPIQSAAQPAPAVPAVPVVPKQAPAQTAKPVAPSPAPTQPKAATPQPAPAASPASRESEKPASAPSNGASNNPEPTPSPAPKSAVENMIGLFVMQPPSDDAIPDLFAAEDKAKIVKVDKWGQTNRVVIFKTVEDRDGALDRLPQEFKTRGSGSDDRNKPLIKVFNPPASRPFNNRGGAGTWASSRGGREGTQSGYRSAGGGTASDSEGAGRRGGRGGSRGGRGGERGGRGSRRGGLKGDGSPATTSATPADS | binds
PP2A scaffold protein PP2AA, endogenous (protein, UniProt F7VS87 1-635) MADATNANDELFPIAVLIDELKHDEVVLRLNAIHRLSTIALALGPERTREELIPFLDESVEDEDEVLVALSEELGNFVEYVGGPAWGHVLLSPLENLAAIEEPVVRDKAVESLNKICTELSSQQVEEYFIPLTIRLSKADWFTSKVSGCGLYTTPYSKVSPPIQEQLRQQFGQLVHDETPMVRRQAATNMAKFVKEMPTAIVVEEMIPMFQHLAGDDQDSVRLLTVEILISIAEVVPKEQQSSHGVLLTSLRSLIEDKSWRVRYMIADRFEKIAKAVDEEVVSRDLVPAFVKLLKDNEAEVRTAIAGQIPGFCALVDRNVLLNDIMGSVEDLVSDSSQHVRAALGTQISGLAPILGKQETIDHLLPMFLQMLKDEFPEVRLHIISKLELVNQVIGIDLLSQSLLPAIVQLAEDKQWRVRLAIIDYIPLLASQLGVKFFDEKLSQLCMGWLGDTVFSIREAATHNLRKLTEVFGVEWASEAIIPKVMAMGGHPNYLYRMTTCFAITTLATVVSLDVIAKSILPMLEKLTADSIPNIRFNVAKTYGVIIGVLRRLPDEGTIYTLEKEGKAATPSPKGQELIQQRIMPCLEKLQKDDDVDVRYFATTAAAQATGPLMGAATEAGNPIPSGGEPMNTSP | binds
CDC55, B-type regulatory subunit of PP2A (protein, UniProt F7W199 1-481) MVETDTNSPTWKFTQCFGDKGDVEDITEADIISTVEFDHTGNYLATGDKGGRVVLFERNETKKTCEYKFHTEFQSHEPEFDYLKSLEIEEKINKIKWCRRQNASHYLLSTNDKTIKLWKVFEKSLKVVAENNLSHDLTPANAAGGGGAPRALPHTHFRSPADLKLPRLTHHDTVVAAVPRRTYANAHAYHINSISVNSDGETFISSDDLRINLWNLNIQDQSFNIVDIKPANMEELTEVITAAEFHPLSCNWFMYASSKGTIKLADMRERALCDQHAKMFEQEEDPSSRSFFSEIISSISDVRFSHDGRYILSRDYLTVKIWDVNMERQPVKTIPIHEHLRPRLCDTYENDSIFDKFEVVFSGDAKNVMTGSYNNNFMIYPSDPDKEVEVVLQADKSAFKAKKVGVPTPINSSTSPTANGGKKGNSRAGSPAAAGQGQRMRKETDADQIDFNKKILHMSWHPFEDSIAIAATNNLFVFSAL | binds
